Measured values as given in PMC10276294, “Regulatory ligand binding in plant chalcone isomerase–like (CHIL) proteins” (The Journal of Biological Chemistry, 2023).
Results are given in words; binding and its absence hold for the method and conditions named.

Target: Type II chalcone isomerase from Medicago sativa (MsCHI-II) (Medicago sativa) (UniProt P28012)
Assay: native gel or EMSA; native PAGE of the purified proteins alone; about 50 mM DTT in the loading buffer; both purified

binding: no binding
B1: Type II chalcone isomerase from Medicago sativa (MsCHI-II) (enzyme, UniProt P28012 1-222)
chain: MAASITAITVENLEYPAVVTSPVTGKSYFLGGAGERGLTIEGNFIKFTAIGVYLEDIAVASLAAKWKGKSSEELLETLDFYRDIISGPFEKLIRGSKIRELSGPEYSRKVMENCVAHLKSVGTYGDAEAEAMQKFAEAFKPVNFPPGASVFYRQSPDGILGLSFSPDTSIPEKEAALIENKAVSSAVLETMIGEHAVSPDLKRCLAARLPALLNEGAFKIGN
